Test results published in publication PMC12037410, “Pharmacological targeting of BMAL1 modulates circadian and immune pathways” (Nature Chemical Biology, 2025).
Results are given in words; binding and its absence hold for the method and conditions named. Binding seen in cells or lysates may run through a third protein. Some binding calls cover weakened binding; strength is not graded here. Where a sequence is shown, tags or fusion partners need not be part of it.

The chains behind the UniProt entries cited, without tags or fusion partners.
UniProt O00327: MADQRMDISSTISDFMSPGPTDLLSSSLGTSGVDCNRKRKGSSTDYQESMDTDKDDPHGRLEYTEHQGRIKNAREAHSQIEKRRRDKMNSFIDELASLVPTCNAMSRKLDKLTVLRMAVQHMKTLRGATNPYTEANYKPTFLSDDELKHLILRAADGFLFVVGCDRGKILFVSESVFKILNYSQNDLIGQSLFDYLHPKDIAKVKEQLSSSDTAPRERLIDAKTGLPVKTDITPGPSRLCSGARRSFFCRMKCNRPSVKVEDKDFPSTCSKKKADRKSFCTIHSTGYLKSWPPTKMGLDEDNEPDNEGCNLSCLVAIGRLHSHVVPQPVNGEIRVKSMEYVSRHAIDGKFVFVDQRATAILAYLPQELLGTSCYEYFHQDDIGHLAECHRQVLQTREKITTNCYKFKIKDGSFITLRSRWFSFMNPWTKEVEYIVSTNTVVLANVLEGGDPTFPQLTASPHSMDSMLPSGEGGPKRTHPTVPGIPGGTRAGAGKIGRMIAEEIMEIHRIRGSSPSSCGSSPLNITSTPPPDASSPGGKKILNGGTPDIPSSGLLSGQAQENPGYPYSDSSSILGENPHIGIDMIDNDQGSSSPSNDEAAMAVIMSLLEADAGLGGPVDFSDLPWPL

Target: T1, Full-length human CLOCK with a C-terminal Myc or Flag tag (human) (UniProt O15516)
T1 sequence: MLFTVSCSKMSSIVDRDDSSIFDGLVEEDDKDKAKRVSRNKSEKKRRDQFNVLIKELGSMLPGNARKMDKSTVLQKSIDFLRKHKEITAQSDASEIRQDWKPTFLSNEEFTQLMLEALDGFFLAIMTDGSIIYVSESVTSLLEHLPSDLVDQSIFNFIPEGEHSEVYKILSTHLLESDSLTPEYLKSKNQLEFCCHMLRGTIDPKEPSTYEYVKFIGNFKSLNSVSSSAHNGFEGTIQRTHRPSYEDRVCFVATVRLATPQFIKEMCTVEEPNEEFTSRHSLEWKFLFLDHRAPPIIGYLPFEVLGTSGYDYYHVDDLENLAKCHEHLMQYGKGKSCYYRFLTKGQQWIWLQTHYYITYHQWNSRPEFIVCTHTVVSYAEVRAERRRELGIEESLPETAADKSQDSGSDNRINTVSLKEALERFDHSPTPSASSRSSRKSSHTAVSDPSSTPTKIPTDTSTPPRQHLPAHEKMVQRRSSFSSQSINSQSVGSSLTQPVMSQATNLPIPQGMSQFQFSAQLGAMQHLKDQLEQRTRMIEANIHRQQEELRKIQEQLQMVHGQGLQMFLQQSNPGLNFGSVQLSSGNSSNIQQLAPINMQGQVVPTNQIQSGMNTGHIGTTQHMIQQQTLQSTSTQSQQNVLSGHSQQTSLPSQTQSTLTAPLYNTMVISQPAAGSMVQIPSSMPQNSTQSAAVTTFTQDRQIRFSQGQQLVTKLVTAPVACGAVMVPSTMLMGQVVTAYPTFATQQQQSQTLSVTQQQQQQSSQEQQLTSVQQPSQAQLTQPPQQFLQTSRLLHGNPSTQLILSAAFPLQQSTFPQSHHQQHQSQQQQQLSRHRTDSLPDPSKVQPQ
Test: co-IP; Myc- and Flag-tagged BMAL1 and CLOCK transiently expressed in U2OS cells treated with 0.1% DMSO or 1-100 uM CCM for about 2.5 h; lysate by sonication in 20 mM HEPES pH 7.5, 100 mM NaCl, 1 mM EDTA, 3% glycerol, 0.1% Tween 20, 0.05% Triton X-100, 1 mM DTT; magnetic Flag beads, 2.5 h in a cold room; western blot

binding: binds
Substance: Full-length human BMAL1 with a C-terminal Myc or Flag tag (from UniProt O00327 1-626)
